Binding data for one molecule are collected here from PMC9859813.

Results are given in words; binding and its absence hold for the method and conditions named. In cells and extracts the contact can be indirect. Binding can be weak; no strength is given. Sequences can lack the tags named with a protein.

The experiment has as its target C-terminal recombinant of TRIM15 (GST fusion). The experiment can be described thus: pull-down; GST fusion proteins immobilised on anti-GST magnetic beads, incubated with cell lysates (RIPA buffer) for 4 h; washed four times; Western blot; only the target purified. On the technique in general: A western blot detects proteins with antibodies after separation by electrophoresis.

B1: HA-LASP1 (protein, UniProt Q14847 1-261)
chain: MNPNCARCGKIVYPTEKVNCLDKFWHKACFHCETCKMTLNMKNYKGYEKKPYCNAHYPKQSFTMVADTPENLRLKQQSELQSQVRYKEEFEKNKGKGFSVVADTPELQRIKKTQDQISNIKYHEEFEKSRMGPSGGEGMEPERRDSQDGSSYRRPLEQQQPHHIPTSAPVYQQPQQQPVAQSYGGYKEPAAPVSIQRSAPGGGGKRYRAVYDYSAADEDEVSFQDGDTIVNVQQIDDGWMYGTVERTGDTGMLPANYVEAI
As to B1, the binding entry was “binds”.
